Measurements published in publication PMC6817756.
Construct, isoform or probe ends are uncertain for at least one entry. Where cells or extracts were used, other partners may take part. For part of these data: At least one verdict rests on a figure or table, not on a statement of the authors. For part of these data: Where a protein sequence is shown, tags need not be part of it.

What was measured:
Assay in all cases: pull-down MS
KMT2A, endogenous = details: competed by Omomyc, EC50 196 nM, likely indirect; pulldown: 50 mM Tris-HCl pH 7.5, 5% glycerol, 1.5 mM MgCl2, 150 mM NaCl, 1 mM DTT, IGEPAL, 4 C; protein in an extract; label: 5'-biotin (BtnTg) on strand 1
MAX, endogenous = MAX, endogenous (UniProt P61244); details: competed by Omomyc, EC50 297 nM; pulldown: 50 mM Tris-HCl pH 7.5, 5% glycerol, 1.5 mM MgCl2, 150 mM NaCl, 1 mM DTT, IGEPAL, 4 C; protein in an extract; label: 5'-biotin (BtnTg) on strand 1
MAZ, endogenous = target: T1, MAZ, endogenous (UniProt P56270); details: competed by Omomyc; pulldown: 50 mM Tris-HCl pH 7.5, 5% glycerol, 1.5 mM MgCl2, 150 mM NaCl, 1 mM DTT, IGEPAL, 4 C; protein in an extract; label: 5'-biotin (BtnTg) on strand 1
T1 sequence (looked up, limits assumed): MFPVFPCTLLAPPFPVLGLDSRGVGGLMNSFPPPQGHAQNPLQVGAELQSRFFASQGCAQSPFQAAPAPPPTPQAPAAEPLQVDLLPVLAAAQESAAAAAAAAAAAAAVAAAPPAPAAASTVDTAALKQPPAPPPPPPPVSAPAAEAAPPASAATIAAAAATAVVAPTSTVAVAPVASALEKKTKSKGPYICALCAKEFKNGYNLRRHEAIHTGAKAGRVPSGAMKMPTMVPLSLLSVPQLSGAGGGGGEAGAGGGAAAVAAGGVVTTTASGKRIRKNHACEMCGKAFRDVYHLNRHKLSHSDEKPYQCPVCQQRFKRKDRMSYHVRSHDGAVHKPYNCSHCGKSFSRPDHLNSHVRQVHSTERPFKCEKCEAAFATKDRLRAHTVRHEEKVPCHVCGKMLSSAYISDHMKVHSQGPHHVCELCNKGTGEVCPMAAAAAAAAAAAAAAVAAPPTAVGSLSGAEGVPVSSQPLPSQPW

MGA, endogenous = MGA, endogenous (UniProt Q8IWI9); details: competed by Omomyc; pulldown: 50 mM Tris-HCl pH 7.5, 5% glycerol, 1.5 mM MgCl2, 150 mM NaCl, 1 mM DTT, IGEPAL, 4 C; protein in an extract; label: 5'-biotin (BtnTg) on strand 1
MNT, endogenous = target: T2, MNT, endogenous (UniProt Q99583); details: competed by Omomyc; pulldown: 50 mM Tris-HCl pH 7.5, 5% glycerol, 1.5 mM MgCl2, 150 mM NaCl, 1 mM DTT, IGEPAL, 4 C; protein in an extract; label: 5'-biotin (BtnTg) on strand 1
T2 sequence (looked up, limits assumed): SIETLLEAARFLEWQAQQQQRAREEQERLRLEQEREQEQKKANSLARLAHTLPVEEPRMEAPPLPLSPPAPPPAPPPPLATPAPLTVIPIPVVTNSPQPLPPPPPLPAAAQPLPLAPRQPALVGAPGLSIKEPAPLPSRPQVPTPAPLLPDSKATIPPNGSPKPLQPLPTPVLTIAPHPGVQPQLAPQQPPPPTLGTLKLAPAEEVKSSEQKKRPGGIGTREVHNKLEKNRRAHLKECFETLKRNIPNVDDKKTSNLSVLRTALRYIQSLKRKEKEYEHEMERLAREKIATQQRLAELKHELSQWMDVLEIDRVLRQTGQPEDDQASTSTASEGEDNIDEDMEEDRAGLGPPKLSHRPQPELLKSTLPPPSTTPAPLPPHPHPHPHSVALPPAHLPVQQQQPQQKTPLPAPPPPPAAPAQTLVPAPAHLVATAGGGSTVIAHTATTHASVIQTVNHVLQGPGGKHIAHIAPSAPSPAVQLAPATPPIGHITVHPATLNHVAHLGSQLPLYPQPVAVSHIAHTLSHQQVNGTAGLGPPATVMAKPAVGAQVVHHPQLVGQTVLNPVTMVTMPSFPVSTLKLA

MXD3, endogenous = target: T3, MXD3, endogenous (UniProt Q9BW11); details: competed by Omomyc; pulldown: 50 mM Tris-HCl pH 7.5, 5% glycerol, 1.5 mM MgCl2, 150 mM NaCl, 1 mM DTT, IGEPAL, 4 C; protein in an extract; label: 5'-biotin (BtnTg) on strand 1
T3 sequence (looked up, limits assumed): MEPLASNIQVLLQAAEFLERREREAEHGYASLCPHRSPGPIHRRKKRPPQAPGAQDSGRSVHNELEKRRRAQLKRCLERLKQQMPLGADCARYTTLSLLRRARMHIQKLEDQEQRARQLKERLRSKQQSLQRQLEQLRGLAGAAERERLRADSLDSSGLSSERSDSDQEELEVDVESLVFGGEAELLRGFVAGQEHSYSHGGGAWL

MXI1, endogenous = target: T4, MXI1, endogenous (UniProt P50539); details: competed by Omomyc; pulldown: 50 mM Tris-HCl pH 7.5, 5% glycerol, 1.5 mM MgCl2, 150 mM NaCl, 1 mM DTT, IGEPAL, 4 C; protein in an extract; label: 5'-biotin (BtnTg) on strand 1
T4 sequence (looked up, limits assumed): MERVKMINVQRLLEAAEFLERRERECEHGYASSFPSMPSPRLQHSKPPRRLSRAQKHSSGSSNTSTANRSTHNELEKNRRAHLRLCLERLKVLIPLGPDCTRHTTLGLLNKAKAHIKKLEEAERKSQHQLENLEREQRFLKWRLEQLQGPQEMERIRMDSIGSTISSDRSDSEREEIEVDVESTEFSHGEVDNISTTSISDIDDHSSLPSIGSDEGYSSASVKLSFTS

MYC, endogenous = MYC, endogenous (UniProt P01106); details: competed by Omomyc, EC50 321 nM; pulldown: 50 mM Tris-HCl pH 7.5, 5% glycerol, 1.5 mM MgCl2, 150 mM NaCl, 1 mM DTT, IGEPAL, 4 C; protein in an extract; label: 5'-biotin (BtnTg) on strand 1
WDR5, endogenous = WDR5, endogenous (UniProt P61964); details: competed by Omomyc, EC50 213 nM, likely indirect; pulldown: 50 mM Tris-HCl pH 7.5, 5% glycerol, 1.5 mM MgCl2, 150 mM NaCl, 1 mM DTT, IGEPAL, 4 C; protein in an extract; label: 5'-biotin (BtnTg) on strand 1

Measured: binding result

CCCCCACCACGTGGTGCCTGA (double strand) [biotinylated MYC E box]
binds: all assays above
